# Screen size: about 580,000 compounds; about 6,100 (1.1%) were called active. The shares of active, inactive and inconclusive entries below differ from those in the screen. The call rests on the fitted dose curve; in most records, active means well fitted inhibition curve with a large enough effect; inconclusive means small, poorly fitted or top-dose-only effect, or another doubt; inactive means no such curve, though single readings can be large or run the other way. Potencies beside an inconclusive call are fits to weak or partial responses and may not hold up. More than one record can exist for a structure, and the calls need not agree.
# Sequences of proteins named here, by UniProt entry; tags and fusion partners are left off.
# UniProt P18054, whole entry, looked up: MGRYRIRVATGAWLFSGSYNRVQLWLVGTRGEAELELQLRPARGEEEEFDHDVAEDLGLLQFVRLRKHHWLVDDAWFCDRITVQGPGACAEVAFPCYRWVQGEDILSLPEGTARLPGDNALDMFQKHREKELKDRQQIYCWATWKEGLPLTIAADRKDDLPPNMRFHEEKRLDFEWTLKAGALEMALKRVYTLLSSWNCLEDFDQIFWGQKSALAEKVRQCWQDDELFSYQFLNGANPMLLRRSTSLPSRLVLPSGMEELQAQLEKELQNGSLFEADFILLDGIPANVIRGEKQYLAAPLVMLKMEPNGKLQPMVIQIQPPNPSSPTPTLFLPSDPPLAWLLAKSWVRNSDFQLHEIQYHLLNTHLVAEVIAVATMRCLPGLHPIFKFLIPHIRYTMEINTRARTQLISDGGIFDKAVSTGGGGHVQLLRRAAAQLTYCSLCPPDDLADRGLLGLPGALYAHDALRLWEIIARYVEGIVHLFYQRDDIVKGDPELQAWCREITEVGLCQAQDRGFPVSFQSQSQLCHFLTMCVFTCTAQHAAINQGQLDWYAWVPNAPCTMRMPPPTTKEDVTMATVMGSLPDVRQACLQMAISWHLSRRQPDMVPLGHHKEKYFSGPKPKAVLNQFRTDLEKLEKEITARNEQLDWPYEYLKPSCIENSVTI
# Molecular target: Polyunsaturated fatty acid lipoxygenase ALOX12 (Homo sapiens) (UniProt P18054)
# Assay: Primary qHTS assay for inhibitors of human arachidonate 12S-lipoxygenase (ALOX12): Round 2
# Settings: purified 12hLO, xylenol orange hydroperoxide absorbance; series mostly up to 108 µM
# Summary of the method: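 Hydroperoxide product was detected by ferrous iron/xylenol orange as the 573 to 405 nm absorbance ratio. Arachidonic acid at 40 uM (final) was turned over for 30 min at room temperature by 150 nM human 12hLO, pH 7.0 Hepes buffer, after 15 min compound preincubation.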
# Potency means the concentration at half of the fitted maximal effect.
row,Structure (SMILES),Potency
1,COc1ccc2[nH]c(=O)c(CN(C)S(=O)(=O)c3ccccc3)cc2c1,inactive
2,CCOC(=O)c1c(-c2ccc(OC)cc2)cn2ccccc12,inactive
3,CN(C)c1ccc(C(=S)N2CCN(c3ccc([N+](=O)[O-])cc3)CC2)cc1,"inconclusive: 35.5 µM [inhibitor, single point]"
4,CCN(CC)C(=S)SCC(=O)NC(=O)NC,inactive
5,Nc1cc(=O)[nH]c(=O)n1Cc1ccccc1,"inconclusive: 35.5 µM [inhibitor, single point]"
6,Cc1nc(NCc2c(C)nn(C)c2Cl)sc1-c1ccn(CC2COc3ccccc3O2)n1 (stereo not given),"inconclusive: 158 µM [inhibitor, single point]"
7,Cn1ncc(Br)c1C(=O)N1CCc2ccccc21,inactive
8,NC(=O)c1c(NC(=O)c2nn(-c3cccc(Cl)c3)ccc2=O)sc2c1CCCC2,"inconclusive: 56.2 µM [inhibitor, partial curve, poor fit]"
9,CSc1ccc(Cl)c(C(=O)Oc2ccccc2Cc2ccccc2)c1,inactive
10,O=C(N/N=C1\CC2CCC1C2)c1sc2ccccc2c1Cl (stereo not given),inactive
11,CN1CC(=O)N(C2CCCNC2)Cc2c(NCCN3CCOCC3)ncnc21 (stereo not given),"inconclusive: 3.55 µM [inhibitor, full curve]"
12,Cc1ccc(Cl)cc1NC(=O)COC(=O)c1ccc2ccccc2n1,"inconclusive: 20 µM [inhibitor, partial curve, poor fit]"
13,O=S(=O)(c1ccc(NC(=S)NN=C(C2CC2)C2CC2)cc1)N1CCOCC1,"inconclusive: 112 µM [inhibitor, single point]"
14,CCOc1ccc(CN2CCNC(=O)C2CC(=O)NC2CCOCC2)cc1 (stereo not given),inactive
15,CSCCC(NS(=O)(=O)c1ccccc1)C(=O)OCc1cc(=O)oc2cc(O)ccc12 (stereo not given),"inconclusive: 89.1 µM [inhibitor, single point]"
16,COc1cccc([S+](=O)([O-])N2CCC3(C2)OC(=O)Nc2cnccc23)c1 (stereo not given),"inconclusive: 12.6 µM [inhibitor, partial curve, poor fit]"
17,CC(C)CC(=O)N1CCN(Cc2ccc3ccccc3c2)CC1,"inconclusive: 0.355 µM [inhibitor, full curve, poor fit]"
18,Cc1ccccc1OCC(=O)N/N=C/c1sc(=O)n(Cc2cccc(C(=O)O)c2)c1Cl,inactive
19,C[C@H](CO)N1C[C@H](C)[C@H](CN(C)Cc2ccncc2)Oc2cc(-c3ccccc3F)ccc2S1(=O)=O,"inconclusive: 100 µM [inhibitor, single point]"
20,Cc1cc(=O)n(CCCO)c(O)c1C#N,"inconclusive: 39.8 µM [inhibitor, partial curve]"
21,O=C(C/C(=N/O)c1ccccc1O)C(F)F,"inconclusive: 14.1 µM [inhibitor, partial curve]"
22,CCCCc1cc(=O)oc2c(C)c(OCC(=O)NCc3cccnc3)ccc12,inactive
23,Cc1ccnc(NC(=O)c2cc(-c3ccc(C)o3)nc3ccccc23)c1,active: 10 µM
24,C=CCNC(=O)CCc1c(C)nn(-c2ccccc2C)c1Oc1cccc(F)c1,"inconclusive: 0.708 µM [inhibitor, full curve, poor fit]"

row,Structure (SMILES),Potency
1,COc1cc(=O)n2c(c1C(=O)NCc1ccco1)CCN(Cc1ccc3nsnc3c1)CC2,"inconclusive: 112 µM [inhibitor, single point]"
2,Cc1ccc(NC(=O)CSc2nc3nc(C)c(Cc4ccccc4)c(C)n3n2)cc1,inactive
3,Cc1ccc(SCc2[nH]nc3c2C2(CCSCC2)C(C#N)=C(N)O3)cc1,"inconclusive: 39.8 µM [inhibitor, partial curve, poor fit]"
4,O=C1Nc2c(Cl)cc(Cl)cc2C12Nc1ccccc1S2 (stereo not given),active: 35.5 µM
5,CCN(CC)C(=O)C1=C(C)N(CCC2=CCCCC2)C(=O)C(CC(=O)NCc2cccc3ccccc23)C1 (stereo not given),"inconclusive: 39.8 µM [inhibitor, partial curve, poor fit]"
6,C[C@@H]1COc2cc(NCCCN3CCOCC3)ccc2S(=O)(=O)N1,"inconclusive: 39.8 µM [inhibitor, partial curve, poor fit]"
7,CC(C)CNC(=O)N1CCN(S(=O)(=O)c2ccc3c(ccn3C)c2)CC1,"inconclusive: 5.62 µM [inhibitor, full curve, poor fit]"
8,CCc1ccc(S(=O)(=O)N/N=C\c2ccc([N+](=O)[O-])o2)cc1,"inconclusive: 39.8 µM [inhibitor, partial curve, poor fit]"
9,CCOC(=O)c1cnn2c(N)c(C#N)cnc12,inactive
10,C[C@H](O)c1onc(-c2ccccc2)c1C(=O)NC1CCC1,"inconclusive: 17.8 µM [inhibitor, full curve]"
11,CN(Cc1ccon1)Cc1cn(C)nc1-c1ccc2c(c1)OCCO2,"inconclusive: 141 µM [inhibitor, partial curve, poor fit]"
12,Cc1cnc(C(=O)N2CCC(n3nccc3NC(=O)CCOc3ccccc3)CC2)cn1,inactive
13,COc1ccc([N+](=O)[O-])c(C=CC(=O)c2ccccn2)c1,inactive
14,O=C(Nc1nonc1-c1ccc2c(c1)CCCC2)c1cccs1,inactive
15,CCCCOc1ccc2c(=O)c(-c3cc(C(=O)OC)oc3C)c(C)oc2c1,active: 44.7 µM
16,N#C/C(=C\c1ccc(O)c(O)c1)C(=O)NCCCc1ccccc1,active: 28.2 µM
17,Cc1cc(C(C)(C)C)ccc1OC(=O)/C=C/c1cccs1,"inconclusive: 0.282 µM [inhibitor, full curve, poor fit]"
18,CCOc1ccc(NC(=S)c2ccncc2)cc1,"inconclusive: 89.1 µM [inhibitor, single point]"
19,CCCCCCC1NC(C(=O)O)CS1 (stereo not given),"inconclusive: 0.708 µM [inhibitor, full curve, poor fit]"
20,O=C(/C=C/c1ccco1)N1CCc2ccccc21,"inconclusive: 39.8 µM [inhibitor, partial curve, poor fit]"
21,CC1(C)Cc2c(sc3c2c(=N)n(Cc2ccco2)c(=O)n3CC(=O)Nc2cccc(Cl)c2)CO1,inactive
22,COc1cc(/C=C(\C#N)C(=O)c2ccccc2)ccc1OCc1ccccc1,inactive
23,O=C(O)CO[C@@H]1COCC[C@H]1NC(=O)c1ccccc1-c1ncn[nH]1,"inconclusive: 8.91 µM [inhibitor, full curve]"
24,CCOC(=O)CCc1c(C)c2ccc(OCC(=O)C(C)(C)C)c(C)c2oc1=O,inactive

# 4 structures from above, arranged by count of non-hydrogen atoms, largest number first.
row,Structure (SMILES),Potency
15,CCCCOc1ccc2c(=O)c(-c3cc(C(=O)OC)oc3C)c(C)oc2c1,active: 44.7 µM
7,CC(C)CNC(=O)N1CCN(S(=O)(=O)c2ccc3c(ccn3C)c2)CC1,"inconclusive: 5.62 µM [inhibitor, full curve, poor fit]"
16,N#C/C(=C\c1ccc(O)c(O)c1)C(=O)NCCCc1ccccc1,active: 28.2 µM
4,O=C1Nc2c(Cl)cc(Cl)cc2C12Nc1ccccc1S2 (stereo not given),active: 35.5 µM

# Next part

row,Structure (SMILES),Potency
1,CN(C)S(=O)(=O)c1cccc(C(=O)N2CCN(S(=O)(=O)c3ccc4c(c3)OCCO4)CC2)c1,inactive
2,CN(C)c1cccc(NC(=O)Cc2ccc(F)cc2)c1,"inconclusive: 44.7 µM [inhibitor, partial curve, poor fit]"
3,COCCn1cnc2c1c(=O)n(CC(=O)Nc1cccc(C)c1C)c(=O)n2Cc1ccccc1,inactive
4,O=C(COC(=O)CSc1ccc([N+](=O)[O-])cc1)NCCC1=CCCCC1,"inconclusive: 89.1 µM [inhibitor, single point]"
5,Cc1ccc(C(=O)CC(C(=O)O)n2cccn2)cc1 (stereo not given),"inconclusive: 31.6 µM [inhibitor, partial curve, poor fit]"
6,CNc1ncnc2ccc(-c3ccccc3C)cc12,"inconclusive: 35.5 µM [inhibitor, partial curve]"
7,Cc1ccc(NC(=O)Cn2c(=O)c(C(F)(F)F)nc3ccccc32)cc1C,inactive
8,CC1CCCN(S(=O)(=O)c2ccc3[nH]c4c(c3c2)CCCC4)C1 (stereo not given),"inconclusive: 112 µM [inhibitor, single point]"
9,Cc1ccc2c(Cl)cc(Cl)c(OCC(=O)N3CCOC(C)C3)c2n1 (stereo not given),"inconclusive: 44.7 µM [inhibitor, partial curve, poor fit]"
10,COc1cccc(-c2ccc3ncc(-c4ccoc4)n3n2)c1,"inconclusive: 50.1 µM [inhibitor, partial curve, poor fit]"
11,Cc1ccc(C(C(=O)NC2CCCCC2)N(C)Cc2ccccc2)cc1 (stereo not given),"inconclusive: 89.1 µM [inhibitor, partial curve, poor fit]"
12,Nc1c(C(=O)NC2CCCC2)sc2nc(-c3cccs3)ccc12,inactive
13,O=C(COc1ccc(Cl)cc1)Nc1ccc(NC(=O)c2ccco2)cc1,inactive
14,CCOC(=O)c1ccccc1NC(=O)Cn1nnc2sc3c(c2c1=O)CCCC3,"inconclusive: 100 µM [inhibitor, partial curve, poor fit]"
15,N#CCc1ccc(OCCCN2CCC(C(O)(c3ccccc3)c3ccccc3)CC2)cc1,"inconclusive: 35.5 µM [inhibitor, partial curve]"
16,COc1ccc(C(=O)NC(=S)NCc2cccnc2)cc1OC,"inconclusive: 50.1 µM [inhibitor, partial curve, poor fit]"
17,Cc1sc2nc(SCc3ccc(C(=O)O)cc3)n(Cc3ccco3)c(=O)c2c1C,inactive
18,CCOc1ccc(S(=O)(=O)N2CCN(c3ccc(NCc4ccccc4)nn3)CC2)cc1,inactive
19,CC(=O)C1=C(O)C(=O)N(CCN2CCOCC2)C1c1ccc2c(c1)OCO2 (stereo not given),"inconclusive: 44.7 µM [inhibitor, partial curve]"
20,CCN1C(=O)CCN(C2CCCC2)c2nc(Nc3ccc(C(=O)NC4CCN(C)CC4)cc3OC)ncc21,"inconclusive: 100 µM [inhibitor, single point]"
21,O=C(COC(=O)c1ccc[n+]([O-])c1)Nc1ccc([N+](=O)[O-])cc1C(F)(F)F,"inconclusive: 112 µM [inhibitor, partial curve, poor fit]"
22,CSc1ccccc1C(=O)NCc1coc(-c2cccs2)n1,"inconclusive: 56.2 µM [inhibitor, partial curve, poor fit]"

# From PubChem BioAssay AID1671190 (National Center for Advancing Translational Sciences (NCATS), 2021)
